PubChem BioAssay AID493014 (National Center for Advancing Translational Sciences (NCATS), 2011)
This is one part of the list. Shown are side measurements of this screen, not its main read-out; they come without a call. Compounds called inactive in the main read-out are mostly missing here. The note in brackets gives the kind of curve behind each potency; many fits are weak.

Assay: qHTS Assay to Find Inhibitors of Chronic Active B-Cell Receptor Signaling
Settings: ABC-DLBCL IkBa-CBG/CBR reporter, luminescence ratio (green luciferase fused to IkBa over red control in TMD8 lymphoma cells), 4 h; measured here: CBR red luminescence, cell number
Summary of the method: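 Doxycycline induced both beetle luciferases in TMD8 lymphoma cells; IKK-driven degradation limits the IkappaBalpha-fused green signal, while red luminescence normalises for cell number and nonspecific effects. Compounds tested up to 46 uM, 4 hrs.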

| SMILES | AC50 |
| --- | --- |
| O=C(Nc1ccc(C(=O)O)cc1)/C(=C\C=C\c1ccccc1)NC(=O)c1cccc(Br)c1 | 17.8 µM [falling, single point] |
| CC(c1ccccc1)N1C(=O)c2ccc(C(=O)Nc3ccc(Br)cc3C(=O)O)cc2C1=O (configuration not stated) | 22.4 µM [falling, single point] |
